From article PMC12224964 come the findings set out here.

No constants are given. Whether binding was seen depends on the method and setting. Binding seen in cells or lysates may run through a third protein. Binding can be weak; no strength is given.

The assay addresses T1, VPS41 (as in the co-immunoprecipitations with KAI1) (UniProt P49754).
T1 sequence: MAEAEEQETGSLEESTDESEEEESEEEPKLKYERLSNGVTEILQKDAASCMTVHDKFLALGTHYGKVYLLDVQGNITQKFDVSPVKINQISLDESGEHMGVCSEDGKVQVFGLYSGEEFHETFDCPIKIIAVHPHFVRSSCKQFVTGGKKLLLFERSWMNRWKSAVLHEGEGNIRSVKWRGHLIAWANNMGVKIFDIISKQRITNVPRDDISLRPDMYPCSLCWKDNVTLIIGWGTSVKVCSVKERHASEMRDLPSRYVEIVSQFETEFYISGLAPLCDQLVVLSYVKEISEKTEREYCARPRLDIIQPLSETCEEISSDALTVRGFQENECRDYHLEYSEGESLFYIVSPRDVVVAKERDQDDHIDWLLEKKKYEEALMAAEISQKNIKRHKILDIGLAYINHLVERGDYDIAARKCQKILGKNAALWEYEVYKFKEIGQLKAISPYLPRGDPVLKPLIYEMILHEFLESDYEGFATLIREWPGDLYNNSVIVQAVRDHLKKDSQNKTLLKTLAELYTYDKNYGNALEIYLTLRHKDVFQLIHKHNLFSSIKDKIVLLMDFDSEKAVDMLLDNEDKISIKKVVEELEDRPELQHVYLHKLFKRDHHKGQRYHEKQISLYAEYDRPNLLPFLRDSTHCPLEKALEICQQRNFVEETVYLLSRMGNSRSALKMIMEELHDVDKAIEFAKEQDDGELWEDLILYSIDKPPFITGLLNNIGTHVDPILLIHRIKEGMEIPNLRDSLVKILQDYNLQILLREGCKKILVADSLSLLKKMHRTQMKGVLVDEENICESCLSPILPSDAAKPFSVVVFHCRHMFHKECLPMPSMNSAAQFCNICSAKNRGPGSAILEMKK
As to the kind of experiment: co-IP; HEK-293T cells transfected with VPS41 or KAI1 truncation plasmids.

Consider KAI1-Δ111-228 (domain or fragment), for which the binding result is “binds”.
